Test results from publication PMC6747193.
These are yes or no findings as the source states them, for the method shown.

Chains of the proteins cited; added tags and fusions are not shown. Residues count along the entry.
UniProt P0DQD2, residues 36-321: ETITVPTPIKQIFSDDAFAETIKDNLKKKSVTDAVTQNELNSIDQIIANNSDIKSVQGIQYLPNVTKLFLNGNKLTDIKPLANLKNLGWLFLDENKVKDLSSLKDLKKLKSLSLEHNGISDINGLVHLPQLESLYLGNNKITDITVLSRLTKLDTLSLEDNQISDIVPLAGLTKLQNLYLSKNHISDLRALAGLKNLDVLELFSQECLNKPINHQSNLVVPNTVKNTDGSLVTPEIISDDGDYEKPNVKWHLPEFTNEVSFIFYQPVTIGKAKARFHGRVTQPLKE

Target: InlB internalin domain isoform idInlB13 (lineage II, from L. monocytogenes type strain EGDe) (Listeria monocytogenes) (UniProt P0DQD2)
Test: SEC; Superdex 200 10/300 GL, PBS buffer, flow rate 0.4 mL/min, elution monitored by fluorescence emission at 340 nm (excitation 280 nm); both purified

Substance: InlB internalin domain isoform idInlB13 (lineage II, from L. monocytogenes type strain EGDe) (from UniProt P0DQD2 36-321) (domain or fragment)
- binding: no binding
